Test results taken from patent publication US7132252B2, “Methods for detecting the interaction of compounds with cytochrome P450 using optical molecular sensors” (Invitrogen Corporation, priority 1998, dated 2006).

Sequences of proteins named here, by UniProt entry; tags and fusion partners are left off.
UniProt P08684, whole entry: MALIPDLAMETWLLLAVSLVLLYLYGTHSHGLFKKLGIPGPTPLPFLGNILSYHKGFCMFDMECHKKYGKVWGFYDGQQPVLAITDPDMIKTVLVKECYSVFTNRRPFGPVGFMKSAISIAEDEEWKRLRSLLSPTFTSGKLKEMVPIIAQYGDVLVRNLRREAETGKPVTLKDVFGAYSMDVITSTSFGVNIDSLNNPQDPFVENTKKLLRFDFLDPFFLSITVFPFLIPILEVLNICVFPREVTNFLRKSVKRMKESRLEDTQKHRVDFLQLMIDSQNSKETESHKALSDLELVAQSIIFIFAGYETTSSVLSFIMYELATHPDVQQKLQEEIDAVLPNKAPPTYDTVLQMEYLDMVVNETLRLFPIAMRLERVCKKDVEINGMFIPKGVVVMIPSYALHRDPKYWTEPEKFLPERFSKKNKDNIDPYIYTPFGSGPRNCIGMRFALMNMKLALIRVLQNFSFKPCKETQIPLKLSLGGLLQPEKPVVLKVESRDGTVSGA

Columns and labels:
[1] = biological target: T1, CYP3A4 (Homo sapiens, UniProt P08684); assay: in vitro; conditions: pH 8, % inhibition; for inhibition at 20 min, 10 µM: Condition A; for inhibition at 40 min, 10 µM: Condition B
[2] = biological target: T1, CYP3A4

inhibition at 20 min, 10 µM ([1]; substrate BOMCC) [%]	inhibition at 20 min, 10 µM ([1]; substrate BOMR) [%]	inhibition at 20 min, 10 µM ([1]; substrate DBOMF) [%]	inhibition at 40 min, 10 µM ([1]; substrate BOMCC) [%]	inhibition at 40 min, 10 µM ([1]; substrate BOMR) [%]	inhibition at 40 min, 10 µM ([1]; substrate DBOMF) [%]	SMILES	metabolism-dependent inhibitory activity against the CYP3A4 isozyme [2]
76	77	30				CCN(CC)CCOC(=O)C1(C2CCCCC2)CCCCC1 [Dicyclomine]	at least partial metabolism-dependent inhibitory activity
82	62	32	95	85	80	CN1CCC[C@@H]1CCO[C@](C)(c1ccccc1)c1ccc(Cl)cc1 [Clemastine]	at least partial metabolism-dependent inhibitory activity
